Test results published in the supplement of paper PMC12889115.
This is one part of the list. Values are raw readings; no control value is given beside them.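 Primary screen: polymyxin B was added at a level permeabilizing Salmonella outer membranes while sparing inner membranes. DMSO wells, both with and without polymyxin B, established maximum growth. Plate-to-plate variation meant each plate was ranked on its own, and the lowest-OD600 compounds were selected as hits.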

System: Salmonella enterica serovar Typhimurium SL1344
Assay: bacterial growth OD600 after 18 h with compound and polymyxin B; higher = more bacterial growth (less inhibition)
Settings: 50 µM, Mueller-Hinton broth

Row | SMILES | bacterial growth OD600 (polymyxin B 0.75 µg/mL) | bacterial growth OD600 (polymyxin B 1 µg/mL)
1 | CC#CCN1C(=O)NC(CCCc2ccccc2)(C2CCN(C(=O)c3ccoc3C)CC2)C1=O (centres undefined) | 0.013 | –
2 | CN(C)C(=O)CN1CCN(C(=O)CCC2(Cc3ccc(Cl)cc3)CCC(=O)N2)CC1 (centres undefined) | 0.884 | –
3 | OC(c1ccc2c(c1)CN(Cc1ccccn1)CCO2)C(c1ccccc1)c1ccccc1 (centres undefined) | 0.705 | –
4 | O=C(NCC1Cc2cccc(-c3ncccn3)c2O1)c1ccc(-n2cccn2)cc1 (centres undefined) | 1.01 | –
5 | Cc1ccsc1CN(C)C(=O)c1ccc(OC2CCN(C(=O)C3CC3)CC2)cc1 | – | 1.04
6 | COc1cccc(N2C[C@@H]3C[C@@H](C4=Cc5cc(OC)ccc5OC4)N4CCC[C@@]34C2=O)c1 | – | 1.03
7 | CN(Cc1ccc2nsnc2c1)C(=O)Cn1nnnc1CN1CCCC1 | 0.72 | –
8 | Cc1ccc(C2(c3noc(CN4CCCCC4CO)n3)CCCC2)cc1 (centres undefined) | – | 0.043
9 | Cc1ccc(F)cc1CNC(=O)C1CCCN(C2CCN(C(C)C)CC2)C1 (centres undefined) | 0.809 | –
10 | COc1ccccc1CNC(=O)CCC1(Cc2ccco2)CCC(=O)N1 (centres undefined) | 0.901 | –
11 | Cc1oc(-c2ccccc2NC(=O)CC2CCCC2)nc1CNC(=O)c1c(-c2ccccc2)noc1C | 0.87 | –
12 | Cc1cnc(SCCN2CCOCC2)nc1C1CCCN(C(=O)c2ccc3c(c2)OCO3)C1 (centres undefined) | 0.979 | –
13 | CCCOC1CCCN(c2nncc(-c3c(OC)cccc3OC)n2)C1 (centres undefined) | – | 0.711
14 | CCCCn1c(CN2CCC[C@H]2CO)cnc1S(=O)(=O)CCCC(C)C | 0.446 | –
15 | COCC(C)NC(=O)CCC1(Cc2ccc(OC)c3ccccc23)CCC(=O)N1 (centres undefined) | 0.848 | –
16 | O=C(Cn1cc(NC(=O)CCC(=O)c2ccccc2)cn1)NCC(c1ccccc1)c1ccccc1 | 0.656 | –
17 | Cc1nc(C)c(C(=O)N2CCOc3ccc(C(O)C(c4ccccc4)c4ccccc4)cc3C2)s1 (centres undefined) | 0.743 | –
18 | COCCN1C(=O)CC(CC(=O)N2CC3(C)CC2CC(C)(C)C3)(c2ccccc2OC)C1=O (centres undefined) | 0.009 | –
19 | COc1ccccc1CCc1nnc(CCC(=O)NCc2ccc(F)cc2F)o1 | 0.772 | –

Reprinted at random: 2 entries already listed, in no set order.
Row | SMILES | bacterial growth OD600 (polymyxin B 0.75 µg/mL) | bacterial growth OD600 (polymyxin B 1 µg/mL)
5 | Cc1ccsc1CN(C)C(=O)c1ccc(OC2CCN(C(=O)C3CC3)CC2)cc1 | – | 1.04
17 | Cc1nc(C)c(C(=O)N2CCOc3ccc(C(O)C(c4ccccc4)c4ccccc4)cc3C2)s1 (centres undefined) | 0.743 | –
